Measured values published in patent publication US20240082212A1, “USE OF MDMA FOR TREATMENT OF STRESS-RELATED DISORDERS” (priority 2022, published 2024).

Tested on: cortical neurons
Test: Neurite outgrowth in embryonic rat cortical neuron cultures
Format: cell-based
Conditions: 250 nM positive control, 3 days, vs vehicle
Source text: Female Wistar rats of 17 days gestation were killed by cervical dislocation and the fetuses (typically 6 to 8 in number) were removed from the uteri. Fetal brains were placed in ice-cold medium of Leibovitz (L15, Gibco, France). Cortex was dissected and meninges were carefully removed. The cortical neurons were dissociated by trypsinization (trypsin-EDTA, Gibco) in the presence of DNAse I (Roche, France). The reaction was stopped by addition of Dulbecco's Modified Eagle Medium (DMEM; Gibco) with 10% of fetal bovine serum (FBS; Gibco). The suspension was triturated with a 10-ml pipette and a 21-gauge needle syringe and centrifuged. The pellet of dissociated cells was resuspended in a medium consisting of Neurobasal (Gibco) supplemented with 2% B27 supplement (Gibco), 0.5 mM L-Glutamine (Gibco), and an antibiotic-antimycotic mixture. Viable cells were counted in a Neubauer cytometer and cells were seeded in 96-well plates (Costar) precoated with poly-L-lysine at 10,000 cells/well. […] Stock solutions were prepared in sterile water at 10 mM and stored at −20° C. until used. Further dilutions were prepared in culture in the medium on the day of the treatment. 0.1% Sterile water was present in all tested conditions.
The experimental protocol was performed in two independent cultures (i.e., from two different pregnant rats). For each culture, each condition was tested in sextuplet (6 wells per condition per culture for a total of 12 wells per condition). […] After rinsing the cells with PBS, the plate was imaged and neurite networks were examined and analyzed using a High-Content Screening platform (CellInsight CXS, Thermo Scientific) with integrated Photometrics high-resolution fluorescent camera, Olympus objective (10×) and HCS Studio Cell Analysis Software. Approximately 2,000 neurons per well were analyzed using a validated cortex neuron outgrowth algorithm that utilizes parameters optimized for analysis of embryonic rat cortical neuron cultures. […] Results were expressed as mean (±s.e.m.) of the transformed (% of vehicle control) data. […]

COc1cc2c(cc1OC)C(=O)C(CC1CCN(Cc3ccccc3)CC1)C2 (stereo not drawn) [Donepezil]
significantly increasing: neurite number (#) | neurite total length (μm) | total number of branch points (#)
